Measured data: PubChem BioAssay AID504784 (Drosophila RNAi Screening Center, 2011)
In all, the deposit lists about 17,000 reagents; this is a random part of those that have a named target and a result. 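Each column is one replicate's B-score; the combined score over replicates was not deposited, so single values may mislead.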 Names joined by + are all predicted targets of the reagent.

Aim: 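Fly genes whose silencing alters how much lipid cells keep in droplets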 (primary screen)
Cell system: Drosophila Kc167 embryonic cells
Reagents: long dsRNA against Drosophila genes, about 250 ng dsRNA per well
Duration: 4 days
Conditions: cells fed 400 µM oleic acid bound to BSA
Measured: 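Microscope images give a droplet-to-nucleus area ratio, taken as log and converted to a screen-wide B-score; higher values mean greater lipid storage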
Direction: droplet/nuclear area B-score: higher = more stored lipid (overstorage)

gene	dsRNA	droplet/nuclear area B-score, replicate 1	droplet/nuclear area B-score, replicate 2	droplet/nuclear area B-score, replicate 3
su(w[a]) (GeneID 31054)	DRSC18840	-0.0412		
Sp7 (GeneID 40918)	DRSC15461	-0.691	-1.98	
lili (GeneID 42956)	DRSC14143	-3.28	-0.84	
MAGE (GeneID 40860)	DRSC12504	1.18	-0.0633	
Proc-R (GeneID 31408)	DRSC18410	-0.0271	-0.568	
Acn (GeneID 35173)	DRSC02062	-2.88	-2.76	
Grip163 (GeneID 39365)	DRSC10538	-0.406	0.13	
CG15395 (GeneID 33447)	DRSC00409	1.48	2.23	
PPP1R15 (GeneID 37820)	DRSC04422	8.13	7.98	
ND-MWFE (GeneID 5740593)	DRSC06364	1.11	-0.503	
CG13323 (GeneID 36433)	DRSC06360	-1.87	0.443	
Madm (GeneID 40710)	DRSC12129	-0.00145	0.921	
CG10694 (GeneID 42855)	DRSC14263	0.74	0.691	
CG17005 (GeneID 34249)	DRSC02556	0.159	-0.0552	
CG9436 (GeneID 35586)	DRSC05005	-1.47	-2.44	
Ntan1 (GeneID 37147)	DRSC07546	0.321	-1.06	
DAAM (GeneID 31075)	DRSC18479	-0.695	-0.0138	
tou (GeneID 36241)	DRSC06006	-1.5	-0.962	
tou (GeneID 36241)	DRSC22710	0.627	2.43	
fog (GeneID 33148)	DRSC20646	-0.416	0.000375	
CG2611 (GeneID 35324)	DRSC02710	0.319	-1.38	
CG31038 (GeneID 43535)	DRSC15051	0.22		
CG31038 (GeneID 43535)	DRSC16326	1.24	-1.02	
CG31038 (GeneID 43535)	DRSC16327	0.152		
CG7326 (GeneID 32882)	DRSC20037	0.568	0.00349	
CG9406 (GeneID 37405)	DRSC04552	2.23	-0.0102	
Nf-YB (GeneID 35261)	DRSC02057	-1.19	-1.03	
Tgt (GeneID 33307)	DRSC00672	3.68	0.669	
CG14625 (GeneID 31066)	DRSC18633	-2.99	-0.737	
Jon99Fii + Jon99Cii + Jon99Ciii + 1 more	DRSC15298	-2.6	2.89	
Fer3 (GeneID 41411)	DRSC16133	0.995	0.341	
Fum4 (GeneID 318995)	DRSC22577	-0.982	1.27	
CG17217 (GeneID 34644)	DRSC02592	-1.7	-1.67	
CG6230 (GeneID 34546)	DRSC01989	-0.974	-1.27	
Top1 (GeneID 32458)	DRSC20295	-0.572	-3.46	
ClpP (GeneID 34402)	DRSC02806	-0.695	0.423	
PGRP-SD (GeneID 38858)	DRSC10856		1.1	
CG31921 (GeneID 319027)	DRSC00013	1.07	0.508	
CG42457 (retired record) + cpo	DRSC13273	-0.00469	-1.98	
CG42457 (retired record) + cpo	DRSC14503	0.803	-0.673	
CG42457 (retired record) + cpo	DRSC15327	1.45	1.2	
CG42457 (retired record) + cpo	DRSC16926	0.622	-0.604	
CG42457 (retired record) + cpo	DRSC23006	0.304	0.824	
fd3F (retired record) (GeneID 246673)	DRSC17843	-1.57		
fd3F (retired record) (GeneID 246673)	DRSC23032	1.59	-0.239	
ppk28 (GeneID 32671)	DRSC19919	0.00863	0.386	
Idgf1 (GeneID 34978)	DRSC03349	0.0808	-0.523	
CG1440 (GeneID 31776)	DRSC17915	1.77	1.04	
mRpL45 (GeneID 42671)	DRSC16146	2.37	2.97	
ppk9 (GeneID 37498)	DRSC04134	1.16	0.0369	
ppk9 (GeneID 37498)	DRSC04135	0.358	2.48	
CG14315 (GeneID 42164)	DRSC14794	0.235	1.59	
CG34248 (GeneID 5740883)	DRSC09426	-0.0334	-2.48	
Cpr60D (GeneID 246492)	DRSC04492	-1.6	-1.07	
Shawl (GeneID 5740840)	DRSC02209	2.43	0.0931	
Shawl (GeneID 5740840)	DRSC02748	-0.222	-0.439	
Prp31 (GeneID 39655)	DRSC10735	0.029	2.28	-1.07
yuri (GeneID 34894)	DRSC01453	0.0775	0.343	
yuri (GeneID 34894)	DRSC01943	-0.558	0.0726	
yuri (GeneID 34894)	DRSC01972	0.496	-0.652	
rept (GeneID 40092)	DRSC11388	2.49	-1.23	
spo (GeneID 38631)	DRSC11127	-0.505	0.564	
CG31058 (retired record) (GeneID 43320)	DRSC15840	0.0247	-0.439	
CG31058 (retired record) (GeneID 43320)	DRSC22987	0.251	0.00455	
PolA2 (GeneID 43278)	DRSC16641	-0.324	-1.7	
CG10366 (GeneID 35258)	DRSC02046	-0.0849	1.11	
Nprl2 (GeneID 32677)	DRSC20153	-0.307	0.396	
ttv (GeneID 36614)	DRSC07709	0.0999	0.0231	
MFS9 (GeneID 42426)	DRSC15560	0.114	1.07	
koi (GeneID 35594)	DRSC04980	1.44	-0.0868	
CG15365 (GeneID 31829)	DRSC18038	-2.23	-3.43	
CG15365 (GeneID 31829)	DRSC23021	-0.147	0.0467	
CG33333 (GeneID 2768672)	DRSC13233	-0.114	-1.33	
Or47a (GeneID 36187)	DRSC07491	-0.682	0.583	
GlyT (GeneID 37772)	DRSC04512	1.37	0.391	
Dtwd2 (GeneID 40873)	DRSC12501	-1.24	0.504	
CG10395 (GeneID 35490)	DRSC04840	-1.57	-1.87	
IntS9 (GeneID 39763)	DRSC10493	0	0.599	0.602
rad (retired record) (GeneID 32251)	DRSC19687	-2.29	-0.917	0.03
rad (retired record) (GeneID 32251)	DRSC22865	1.99	0.107	
Spn42De (GeneID 35602)	DRSC05011	0.122	0.636	
alpha-Est9 (GeneID 40897)	DRSC12621	1.25	1.59	
AOX3 (GeneID 41896)	DRSC15955	-0.0751	-0.174	

Targets above whose target name starts with R or r:
gene	dsRNA	droplet/nuclear area B-score, replicate 1	droplet/nuclear area B-score, replicate 2	droplet/nuclear area B-score, replicate 3
rept (GeneID 40092)	DRSC11388	2.49	-1.23	
rad (retired record) (GeneID 32251)	DRSC19687	-2.29	-0.917	0.03
rad (retired record) (GeneID 32251)	DRSC22865	1.99	0.107	
